PubChem BioAssay AID1259405 | NCATS – 2018
Aim: 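Knock-downs that lift recombinant protein yield in hamster ovary cells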 (primary screen). System: Chinese hamster CHO-K1 ovary cells with stable secreted eGFP expression. Knock-down reagent: single siRNA against mouse genes, 0.8 pmol siRNA per well (2 µl of 400 nM stock). Duration: 3 days. Measurement: 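Percent of the per-plate non-targeting control median for intracellular GFP per well by laser scanning cytometry and for cell viability by ATP luminescence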. Direction: GFP, % of control: higher = more GFP per well, higher productivity; viability (ATP), % of control: higher = more viable cells (more ATP). Active means: 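Called active when intracellular GFP, relative to negative control, is at or above 120%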.
The deposit covers about 50,000 reagents; shown is a part drawn at random. About 4,000 of them (8%) count as active. 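Mouse siRNA library applied to hamster cells; one well for each siRNA.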 Reagents against one gene are numbered here. Reagent sequences are not shown.

Target gene	reagent no.	GFP, % of control	viability (ATP), % of control	call
H2ap	1	77	48.6	inactive
H2ap	2	83.5	78.6	inactive
H2ap	3	41.2	70.9	inactive
Cops2	1	80.2	80.5	inactive
Cops2	2	96.7	77	inactive
Cops2	3	90.3	101	inactive
Zfp119b	1	93.8	73.7	inactive
Zfp119b	2	44.5	61.2	inactive
Zfp119b	3	75.3	91.8	inactive
Prpf40a	1	63.2	80.9	inactive
Prpf40a	2	63.6	79.1	inactive
Prpf40a	3	118	61.3	inactive
Nipal2	1	72.3	65.5	inactive
Nipal2	2	53.9	71.7	inactive
Nipal2	3	106	88.6	inactive

Sorted by “GFP, % of control” (highest first): 2 of the entries above.
Target gene	reagent no.	GFP, % of control	viability (ATP), % of control	call
Nipal2	3	106	88.6	inactive
Nipal2	2	53.9	71.7	inactive

The results go on.
Target gene	reagent no.	GFP, % of control	viability (ATP), % of control	call
Cryba4	1	94.4	63	inactive
Cryba4	2	109	79	inactive
Cryba4	3	115	112	inactive
Tmprss4	1	54.1	70.2	inactive
Tmprss4	2	62.3	71.5	inactive
Tmprss4	3	74.1	79.5	inactive
Or12k8	1	72	72.3	inactive
Or12k8	2	59.9	79.2	inactive
Or12k8	3	94	63.8	inactive
Smad7	1	70.9	73.2	inactive
Smad7	2	91.9	85.2	inactive
Smad7	3	90.9	104	inactive
Zfp553	1	90.4	69.5	inactive
Zfp553	2	77	78.3	inactive
Zfp553	3	118	82.3	inactive
H2bc27	1	117	117	inactive
H2bc27	2	72.2	59.5	inactive
H2bc27	3	140	99	active
Cd300ld	1	90.8	46.4	inactive
Cd300ld	2	75.5	92.7	inactive
Cd300ld	3	61.5	56.3	inactive
